Laboratory results reported in patent publication EP3644968B1, “LEVOCLOPERASTINE FENDIZOATE SUSPENSION HAVING ENHANCED DISSOLUTION AND RESUSPENDABILITY” (Ilko Ilaç Sanayi Ve Ticaret Anonim Sirketi, priority 2017, dated 2019).
At least one compound was matched to its structure with a doubt left.

Assay: water solubility (USP solubility definitions)
Type: physicochemical

## Clc1ccc([C@@H](OCCN2CCCCC2)c2ccccc2)cc1.O=C(O)c1ccccc1C(=O)c1ccc(O)c(-c2ccccc2)c1 [Levocloperastine fendizoate]
  water solubility: less than 0.1 mg/mL
